We go through 63 molecules from PubChem BioAssay AID493014 (National Center for Advancing Translational Sciences (NCATS), 2011).

Each structure is given as a SMILES string. The list shows a part of the results. The main result of the screen is listed elsewhere. These columns were measured beside it and carry no call. Compounds called inactive in the main read-out are mostly missing here. Potencies come from curve fits of mixed quality, noted in brackets.

A short description of this test: qHTS Assay to Find Inhibitors of Chronic Active B-Cell Receptor Signaling. The following applies: ABC-DLBCL IkBa-CBG/CBR reporter, luminescence ratio (green luciferase fused to IkBa over red control in TMD8 lymphoma cells), 4 h. A digest of the protocol: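 TMD8 human ABC-DLBCL cells with doxycycline-inducible IκBα–green luciferase fusion and unfused red luciferase, in 0.5% FBS medium; compounds up to 46 uM, 4 h at 37C. Green/red luminescence ratio, filter-overlap corrected, fitted to concentration-response curves.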
A general note: In qHTS, concentration-response curves come from the screen itself.

[1] abbreviates: measured here: CBR red luminescence, cell number.
The mark [2] stands for this setting: measured here: IkBa-CBG green luminescence.

The AC50 is the concentration at which the activity in the assay is half-maximal. `N#Cc1c(N)nc(Sc2ccc(Cl)cc2)c(C#N)c1-c1ccccc1Cl`: under setting [1], the AC50 is 12.6 µM [falling, partial curve, poor fit].
Still for that read-out and setting: for `Cc1nc(NC(=O)/C=C/c2ccc(F)cc2)sc1C(=O)N(C)C` the value was 8.2 µM [falling, partial curve].
Still for that read-out and setting: for `Cn1c(=O)c2c(nc(SCCN3CCCCC3)n2C)n(C)c1=O` the value was 0.224 µM [falling, full curve, poor fit]; for `CCOC(=O)Cn1nc(NC(=O)c2cc(OC)cc(OC)c2)cc1C`, 20 µM [falling, single point].
The same measure, in the same setting: for `CNC(=S)/N=C/NOCc1c(Cl)cccc1Cl` the value was 14.1 µM [rising, partial curve, poor fit]; for `Cc1csc(NC(=O)c2ccc3c(=O)n4c(nc3c2)CCCCC4)n1`, 14.6 µM [falling, single point].
For `O=C(CSc1nnc2ccc(-c3ccncc3)nn12)N1CCCCC1`, the AC50 under setting [1] is 2.82 µM [rising, single point].
On to `COc1ccccc1NC(=O)N1CCN(c2ccnc3cc(Cl)ccc23)CC1`, for which, under setting [1], the AC50 is 12.6 µM [falling, partial curve].
For `CCN(CC(=O)Nc1cc(C)on1)CC(=O)Nc1ccccc1C(F)(F)F`, the AC50 under setting [1] was 6.51 µM [rising, partial curve, poor fit].
In the case of `COc1ccc(C(C)=O)cc1COC(=O)c1ccc(N)c([N+](=O)[O-])c1`, the AC50 reads like this: under setting [1], 14.1 µM [rising, partial curve]; under setting [2], 14.1 µM [falling, partial curve].
With `CC1CN(c2nc3ccccc3cc2-c2ccccc2)CC(C)O1` (configuration not stated), the half-maximal activity concentration (AC50) under setting [1] was 20 µM [falling, single point].
Regarding `CCOC(=O)c1ccc(NC(=S)Nc2ccccn2)cc1`, the concentration at half-maximal activity (AC50) under setting [1] was 18.4 µM [rising, partial curve].
On the same count and under the same terms, for `CCOC(=O)C1CCN(C(=O)C2CCN(S(=O)(=O)c3cccc4cccnc34)CC2)CC1` the value was 3.16 µM [rising, partial curve, poor fit].
As for `Cc1ccc(N2C(=O)Nc3ccc(Br)cc3C2(O)C(=O)NCCN(C)C)cc1C` (configuration not stated), under setting [1], the AC50 is 15.8 µM [rising, partial curve].
On the same count and under the same terms, for `O=C(NNC(=O)c1ccccc1O)c1ccc(NS(=O)(=O)c2ccc(F)cc2)cc1` the value was 20.6 µM [falling, single point]; for `COc1ccc(-c2nnc(OCc3ccccc3)c3ccccc23)cc1`, 6.51 µM [rising, single point]; for `O=c1[nH]nc(SCc2ccccc2)n1C1CC2C=CC1C2` (configuration not stated), 0.447 µM [rising, full curve, poor fit].
Take `O=C(NN=C1CCCC1)c1n[nH]c2c1CCCC2`: the AC50 is, setting by setting: under setting [1], 35.5 µM [falling, single point]; under setting [2], 20 µM [falling, partial curve].
For the molecule `COc1ccc(C)cc1Nc1nc(C)nc2c1oc1ccccc12`, under setting [1], the AC50 was 2.51 µM [rising, partial curve, poor fit].
In the case of `O=C1N/C(=N/NC(=O)c2cccc3ccccc23)S/C1=C\c1ccccc1OCc1ccccc1`, the AC50 under setting [1] is 0.282 µM [falling, full curve, poor fit].
With `O=C1c2ccccc2C2=Nc3ccccc3SC(c3cccc(F)c3)C12` (configuration not stated), the AC50 is 14.6 µM [falling, partial curve] under setting [1] and 20.6 µM [rising, single point] under setting [2].
Regarding `CCOC(=O)c1ccc(NC(=O)c2nn(C)cc2Br)cc1`, the AC50 under setting [1] was 15.8 µM [falling, partial curve].
In the case of `O=C(N/N=C1/CC(c2ccccc2)Oc2ccccc21)C1CC1` (configuration not stated), the AC50 under setting [1] was 29.1 µM [rising, single point].
The same measure, in the same setting: for `Cc1cccc(C(=O)NCCC(=O)Nc2ccc(F)c([N+](=O)[O-])c2)c1` the value was 0.562 µM [falling, full curve, poor fit]; for `O=C(Nc1ccc(Br)cc1)C1Cc2ccccc2O/C1=N\O` (configuration not stated), 0.282 µM [rising, full curve, poor fit]; for `COc1cccc(OCCNc2cc(Cl)ccc2[N+](=O)[O-])c1`, 29.1 µM [rising, single point].
Same read-out and setting: for `COc1cccc(CNc2ncnc3c2nnn3C)c1` the value was 7.94 µM [falling, partial curve]; for `O=C(CC1SC(N2CCCC2)=NC1=O)Nc1ccc(C(=O)N2CCCC(C(F)(F)F)C2)cc1` (configuration not stated), 18.4 µM [falling, partial curve, poor fit].
Still for that read-out and setting: for `COc1cc([N+](=O)[O-])ccc1NC(=O)NCc1ccco1` the value was 35.5 µM [falling, single point]; for `Cc1ccc(NC(=O)C(=O)c2cn(CC(=O)N3CCCCC3)c3ccccc23)cc1`, 1.03 µM [falling, full curve]; for `Brc1ccc2c(c1)CN1CCCC1=N2`, 8.91 µM [rising, partial curve, poor fit].
For `NC(=O)CN1C(=O)C(=O)N(Cc2ccc(Cl)cc2)C1=O`, under setting [1], the AC50 was 2 µM [rising, partial curve, poor fit].
Regarding `O=C1/C(=C\c2cccnc2)CN(Cc2ccccc2)C/C1=C\c1cccnc1`, under setting [1], the concentration at half-maximal activity (AC50) was 2.91 µM [falling, partial curve, poor fit].
Consider `CC(=O)[C@@]1(O)CC[C@H]2[C@@H]3C[C@H](C)C4=CC(=O)C=C[C@]4(C)[C@@]3(F)[C@@H](O)C[C@@]21C`, for which, under setting [1], the AC50 was 0.447 µM [rising, full curve, poor fit].
The same measure, in the same setting: for `CC(C)(C)n1nnnc1C(c1cccs1)N1CCN(Cc2ccc3c(c2)OCO3)CC1` (configuration not stated) the value was 3.66 µM [falling, full curve, poor fit].
Take `COc1ccc(C2/C=C\CN(C(=O)C3CC3)[C@H](Cc3ccccc3)C(=O)N2Cc2ccc(F)cc2)cc1` (some centres not stated): under setting [1], the AC50 is 17.8 µM [falling, single point].
The same measure, in the same setting: for `COc1ccc(Cl)cc1NC(=O)CNCc1cccs1` the value was 7.94 µM [falling, partial curve]; for `CNC(=S)N1CCN(CCNC2=CC(=O)CC(C)(C)C2)CC1`, 5.62 µM [falling, single point].
Same read-out and setting: for `COc1ccc(CN(C)S(=O)(=O)c2nnc(NC(=O)c3cccc(C)c3)s2)cc1OC` the value was 6.31 µM [rising, full curve].
As for `O=Cc1ccc2ccc3cccnc3c2n1`, the AC50 under setting [1] is 25.1 µM [falling, partial curve, poor fit].
As to `CN(C)c1nc(OCCNC(=O)Nc2ccccc2)nc(N2CCOCC2)n1`, the AC50 under setting [1] was 25.9 µM [rising, single point].
On the same count and under the same terms, for `CC(=O)Oc1ccc(C(=O)Nc2ccc(S(=O)(=O)N3CCOCC3)cc2)cc1` the value was 31.6 µM [falling, single point].
For `Cc1ccc2nc(NC(=O)CCNS(=O)(=O)c3ccc(Br)s3)sc2c1`, the AC50 runs as follows: under setting [1], 12.6 µM [falling, single point]; under setting [2], 14.1 µM [rising, partial curve, poor fit].
Take `COc1ccc(NC(=S)Nc2ccccc2F)c(OC)c1`: the AC50 under setting [1] was 14.1 µM [falling, partial curve].
Same read-out and setting: for `NC(=O)C1(N2CCCCC2)CCN(C(=S)Nc2cccc(Cl)c2)CC1` the value was 29.1 µM [rising, single point].
Consider `Cc1sc2nc(CSc3ccccc3)nc(NCCN(C)C)c2c1C`, for which the AC50 under setting [1] is 9.2 µM [falling, partial curve].
Take `CCn1c2ccccc2c2cc(NC(=O)C(C)C)ccc21`: the AC50 under setting [1] was 7.08 µM [rising, partial curve].
`COc1cc(/C=N/NC(=O)c2cccs2)ccc1O`: under setting [1], the AC50 is 14.1 µM [falling, partial curve].
On to `Cc1ccc(N/C=C/C(=O)c2ccccc2)cc1C`, for which the AC50 under setting [1] was 0.411 µM [falling, full curve].
Turning to `CCOCCCNC(=O)C(c1ccc(OC)cc1)N(Cc1cccs1)C(=O)c1ccccn1` (configuration not stated), under setting [1], the AC50 is 14.1 µM [rising, partial curve, poor fit].
On the same count and under the same terms, for `Cc1ccc(C2=NN(S(=O)(=O)c3ccccc3)C(c3ccccc3O)C2)cc1` (configuration not stated) the value was 15.8 µM [falling, partial curve, poor fit]; for `O=C(Nc1cccc(NC(=O)c2ccccc2[N+](=O)[O-])c1)c1ccccc1Cl`, 6.31 µM [rising, single point]; for `CC(NC(=O)c1ccco1)C1CCCO1` (configuration not stated), 7.31 µM [falling, partial curve].
Consider `O=C(Nc1ccc2nc3n(c(=O)c2c1)CCCCC3)C(=O)N1CCN(c2ccccc2)CC1`, for which the half-maximal activity concentration (AC50) under setting [1] was 17.8 µM [rising, partial curve].
Still for that read-out and setting: for `Cc1c(C(=O)OCC(C)(C)CN(C)C)oc2ccccc12` the value was 6.51 µM [rising, partial curve, poor fit]; for `C#CCOc1ccc(/C=N/O)cc1Cl`, 4.11 µM [rising, full curve].
For `NS(=O)(=O)c1cccn1-c1ncc(C(F)(F)F)cc1Cl`, the AC50 under setting [1] is 0.00517 µM [falling, full curve, poor fit].
Same read-out and setting: for `CCOc1ccc(NC(=O)CN2CCN(CC(=O)Nc3ccc(N(C)C)cc3)CC2)cc1` the value was 35.5 µM [rising, single point]; for `CSc1ccccc1OCc1cc(C(=O)NC(C)CCn2cccn2)no1` (configuration not stated), 7.08 µM [falling, partial curve, poor fit].
Still for that read-out and setting: for `Clc1ccc2c(N/N=C/c3cccc(Br)c3)ccnc2c1` the value was 1.16 µM [rising, full curve, poor fit]; for `CCOC(=O)C1(Cc2cccc(OC)c2)CCN(Cc2ccc(OC)c(OC)c2)CC1`, 12.6 µM [falling, partial curve, poor fit].
Same read-out and setting: for `COc1ccc(C[C@H]2CN3C(=NC[C@@H]3Cc3ccc(O)cc3)N2C[C@H](C)NC(=O)CCC2CCCCC2)cc1` the value was 12.6 µM [falling, partial curve].
Consider `CCOCCCn1c(=NC(=O)c2ccc(OC)c(OC)c2)c(C#N)cc2c(=O)n3cccc(C)c3nc21`, for which, under setting [1], the AC50 was 1.3 µM [rising, full curve, poor fit].
